{
  "source": "patent US20240335427A1",
  "about": "“SMALL MOLECULE INHIBITION OF DEUBIQUITINATING ENZYME JOSEPHIN DOMAIN CONTAINING 1 (JOSD1) AS A TARGETED THERAPY FOR LEUKEMIAS WITH MUTANT JANUS KINASE 2 (JAK2)” (DANA-FARBER CANCER INSTITUTE, INC., priority 2021, published 2024)",
  "molecular_target": "JAK2-V617F (Homo sapiens (Human), UniProt O60674, V617F)",
  "test": "JAK2-V617F protein loss in human AML cell lines by western blotting",
  "type": "cell-based",
  "conditions": "JAK2-V617F-positive human AML cell lines (HEL, SET-2, MUTZ8), western blot",
  "experimental": "Immunoblotting and Immunoprecipitation. Protein lysate preparation, immunoblotting, and immunoprecipitation were carried out as previously described (Lamberto, et al., 2017 Cell Chem Biol., 224(12):1490-500 e11). Briefly, 0.7×10^6 cells were treated with compounds 1 and 2 at 0, 5, 10, and 20 μM for 16 or 24 hours, cells were collected, and lysate was prepared in radioimmunoprecipitation assay (RIPA) buffer, JAK family and downstream signaling protein levels were detected by western blotting with the indicated antibodies. For immunoprecipitation, 1 mg protein for each sample was prepared and 1 μg antibody was used, immunoglobulin G (IgG) was added in same amount as nontargeting control.",
  "note": "At least one compound was matched to its structure with a doubt left.",
  "data": [
    {"smiles": "CC(C)(C)NS(=O)(=O)c1cccc2c(NC(=O)[C@H](Cc3ccccc3)NC(=O)C3CCCCC3)cccc12", "note": "[MF-094, reference compound]", "values": [
      {"measurement": "JAK2-V617F protein loss / degradation", "result": "Little to no inhibitor-induced JAK2-V617F protein loss"}
    ]}
  ]
}
